Earlier results, collected in patent EP4178570B1, “VETERINARY COMPOSITIONS FOR PREVENTING AND/OR TREATING LEISHMANIOSIS” (priority 2020, dated 2022).
At least one structure is not confirmed: it was looked up by name or label, or the drawing left a doubt.

Tested on: L. infantum life stage forms (promastigote and amastigote)
Details: Cortes et al., 2015; cited from earlier work

C[C@H]1[C@@H](O)O[C@@H]2O[C@@]3(C)CC[C@H]4[C@H](C)CC[C@@H]1[C@@]24OO3 [dihydroartemisinin]
in vitro activity against L. infantum life stage forms (promastigote and amastigote): in vitro activity
